According to patent publication US20260137707A1, “METHODS OF MODULATING ATXN2 EXPRESSION” (University of Utah Research Foundation, priority 2022, published 2026):
Where a name gives a salt, the structure may show the parent alone. Read-outs that look alike come from different tables or passages of the source. For some of these results: The name of at least one read-out is uncertain. For some of these results: For at least one compound, name, drawing or mass did not settle the structure. Some entries share one result that the patent states for a list of compounds.

Key:
ATXN2-luc [1] = conditions: H2 & S1 cells
ATXN2-luc [2] = conditions: Table 1, H2 cells, 24 hrs, single 10 μM dose, Z-score of luciferase
[3] = cited from earlier work

CN1CCN(CCCN2c3ccccc3Sc3ccc(C(F)(F)F)cc32)CC1 [TRIFLUOPERAZINE HYDROCHLORIDE]
lowered ATXN2-luc (ATXN2-luc [1]): > 2.7 SD

COc1ccc(CN2CCN(C(c3ccc(F)cc3)c3ccc(F)cc3)CC2)c(OC)c1OC [LOMERIZINE DiHCl]
lowered ATXN2-luc (ATXN2-luc [1]): > 2.7 SD

COc1cccc2c1C(=O)c1c(O)c3c(c(O)c1C2=O)C[C@@](O)(C(=O)CO)C[C@@H]3O[C@H]1C[C@H](N)[C@H](O)[C@H](C)O1 [Doxorubicin hydrochloride]
SD from Mean (ATXN2-luc [2]; hydrochloride): −3.897 SD
SD from Mean (ATXN2-luc [2]; listed as DOXORUBICIN HYDROCHLORIDE, hydrochloride): −2.751 SD

COc1cc([C@@H]2c3cc4c(cc3[C@@H](O[C@@H]3O[C@@H]5CO[C@@H](C)O[C@H]5[C@H](O)[C@H]3O)[C@H]3COC(=O)[C@H]23)OCO4)cc(OC)c1O [Etoposide]
SD from Mean (ATXN2-luc [2]): −3.117 SD
SD from Mean (ATXN2-luc [2]; listed as ETOPOSIDE): −3.073 SD

COc1cccc(-c2cc(F)ccc2[C@H]2Cc3nc(N)nc(C)c3C(=O)N2)n1 [HSP990]
crossing the blood brain barrier [3]: can also cross the blood brain barrier
